Here are results for 39 sequences from publication PMC7862700.

Protein sequences, listed by entry. Tags and fused reporters are not part of them. Lines headed by an entry give the natural chain unless they say otherwise; changes in a name come on top.
UniProt P50549: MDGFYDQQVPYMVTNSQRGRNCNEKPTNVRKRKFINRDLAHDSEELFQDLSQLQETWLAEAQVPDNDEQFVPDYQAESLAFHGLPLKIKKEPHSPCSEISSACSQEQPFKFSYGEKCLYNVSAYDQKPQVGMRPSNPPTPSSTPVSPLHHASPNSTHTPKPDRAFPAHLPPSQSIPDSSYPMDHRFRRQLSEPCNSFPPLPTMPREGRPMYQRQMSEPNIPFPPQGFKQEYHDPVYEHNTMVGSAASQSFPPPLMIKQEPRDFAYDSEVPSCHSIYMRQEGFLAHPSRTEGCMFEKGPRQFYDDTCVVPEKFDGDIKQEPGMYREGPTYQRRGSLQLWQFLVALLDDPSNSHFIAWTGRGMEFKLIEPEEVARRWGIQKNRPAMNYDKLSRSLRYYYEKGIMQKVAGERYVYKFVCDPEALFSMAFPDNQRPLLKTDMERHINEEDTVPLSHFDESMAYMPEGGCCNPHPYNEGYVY
UniProt P32519: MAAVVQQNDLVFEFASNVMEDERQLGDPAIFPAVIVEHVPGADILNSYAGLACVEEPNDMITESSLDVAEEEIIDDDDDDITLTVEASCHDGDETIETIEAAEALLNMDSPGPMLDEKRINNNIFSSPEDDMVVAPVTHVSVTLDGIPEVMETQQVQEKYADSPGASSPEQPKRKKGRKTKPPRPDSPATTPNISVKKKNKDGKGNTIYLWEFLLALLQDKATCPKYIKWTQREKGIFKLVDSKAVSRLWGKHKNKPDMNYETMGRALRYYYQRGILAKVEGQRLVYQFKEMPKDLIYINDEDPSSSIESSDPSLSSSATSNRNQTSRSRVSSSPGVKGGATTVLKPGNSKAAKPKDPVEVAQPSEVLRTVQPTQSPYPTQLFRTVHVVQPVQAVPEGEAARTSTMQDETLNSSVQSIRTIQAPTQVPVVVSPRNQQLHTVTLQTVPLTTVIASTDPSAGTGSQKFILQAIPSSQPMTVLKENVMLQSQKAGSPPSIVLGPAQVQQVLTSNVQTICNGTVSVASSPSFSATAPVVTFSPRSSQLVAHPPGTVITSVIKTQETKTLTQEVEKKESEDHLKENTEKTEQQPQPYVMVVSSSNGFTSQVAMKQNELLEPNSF

Assay in all cases: DAPPL (digital affinity profiling via proximity ligation, sequencing)
Settings in all cases: 10 mM Tris-HCl pH 7.5, 50 mM NaCl, 1 mM DTT, 4% glycerol, room temperature, 30 min; GST-TFs on glutathione beads, 16-mer random dsDNA library, 0.1% …; high values mean tight binding; double strand, one strand shown; scale: fold enrichment (6-mer frequency, TF over GST control)

One test has as its target T1, ETV4 (UniProt P43268).
T1 sequence: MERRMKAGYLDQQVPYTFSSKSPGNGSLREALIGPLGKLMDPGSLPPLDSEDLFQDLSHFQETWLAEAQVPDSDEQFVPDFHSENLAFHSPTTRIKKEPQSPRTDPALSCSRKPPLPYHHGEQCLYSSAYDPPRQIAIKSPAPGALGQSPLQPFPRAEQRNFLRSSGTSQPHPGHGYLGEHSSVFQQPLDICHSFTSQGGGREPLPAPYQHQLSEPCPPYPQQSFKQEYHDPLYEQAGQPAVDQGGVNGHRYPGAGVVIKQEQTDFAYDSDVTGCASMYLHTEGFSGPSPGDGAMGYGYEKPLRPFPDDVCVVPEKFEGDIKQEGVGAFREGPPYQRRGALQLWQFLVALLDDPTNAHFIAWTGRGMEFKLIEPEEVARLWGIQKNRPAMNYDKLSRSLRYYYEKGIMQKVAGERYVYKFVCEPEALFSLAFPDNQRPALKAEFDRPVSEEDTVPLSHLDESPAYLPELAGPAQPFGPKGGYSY

A further test has as its target ETV1 (UniProt P50549).
For a further test, the target named is T2, ERF (UniProt P50548).
T2 sequence: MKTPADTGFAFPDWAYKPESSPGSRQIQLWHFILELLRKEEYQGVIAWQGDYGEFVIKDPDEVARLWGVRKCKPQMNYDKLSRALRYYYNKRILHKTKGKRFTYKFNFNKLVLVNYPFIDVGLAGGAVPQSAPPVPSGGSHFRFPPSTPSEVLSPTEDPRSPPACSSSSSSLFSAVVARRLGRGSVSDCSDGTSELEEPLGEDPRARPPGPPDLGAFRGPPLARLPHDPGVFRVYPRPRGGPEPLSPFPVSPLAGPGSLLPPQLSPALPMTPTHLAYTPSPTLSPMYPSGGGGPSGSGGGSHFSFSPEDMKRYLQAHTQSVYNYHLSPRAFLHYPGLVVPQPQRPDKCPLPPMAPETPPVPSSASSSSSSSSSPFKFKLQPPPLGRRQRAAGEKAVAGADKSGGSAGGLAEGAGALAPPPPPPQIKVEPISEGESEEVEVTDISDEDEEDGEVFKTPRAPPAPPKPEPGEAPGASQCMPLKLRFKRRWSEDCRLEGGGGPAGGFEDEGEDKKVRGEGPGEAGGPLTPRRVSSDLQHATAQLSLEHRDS

The target in a further test is ELF1 (UniProt P32519).

The list shows a part of the results, in another mix than the full data. For some of these results: At the low end of the ranking the order means little. The list shows a part of the results. For some of these results: The exact form of the protein is not confirmed.

For GAAACA, the binding signal came out at 1.31 with ETV4, 1.26 with ETV1 and 1.34 in the test with ERF.

Take GCACTA: the results for the binding signal with ETV4, with ETV1 and with ERF were 1.22, 1.15 and 1.19, respectively.

As to CTGAAA, the binding signal stood at 1.22 with ETV4, 1.1 in the test with ETV1 and 1.09 with ERF.

As for TCAACG, the binding signal with ETV4 stood at 1.14; with ETV1, 1.15; with ERF, 0.995.

Regarding TCTCCT, the results for the binding signal with ETV4, in the test with ETV1 and in the test with ERF were 1.55, 1.49 and 1.34, respectively.

GTTAAT: the binding signal with ETV4 turned out to be 1.14; with ETV1 it was 1; in the test with ERF, 0.999.

Turning to GAAACT, the binding signal worked out at 1.16 in the test with ETV4, 1.27 with ETV1 and 1.03 in the test with ERF.

For ACGCTC, the results for the binding signal with ETV4, with ETV1 and with ERF were 1.04, 0.948 and 0.998, respectively.

CGCGGC: the binding signal came out at 1.09 with ETV4, 0.963 with ETV1 and 0.981 with ERF.

In the case of TTTCGG, the results for the binding signal in the test with ETV4, with ETV1 and with ERF were 1.15, 1.31 and 1.17, respectively.

Regarding ACATGT, the binding signal in the test with ETV4 turned out to be 1.09; in the test with ETV1, 1.09; in the test with ERF, 1.15.

Regarding ATGAAC, the figures for the binding signal with ETV4, in the test with ETV1 and with ERF were 1.28, 1.38 and 1.26, respectively.

As for TCCCCG, the binding signal in the test with ETV4 came out at 1.16; with ETV1, 1.13.

As for GCTGCC, the binding signal with ETV4 was determined as 1.09; with ETV1, 1.19; with ERF it was 1.

Regarding GATGCG, the binding signal in the test with ETV4 was found to be 1.07; with ETV1, 1.06.

Turning to GGTACT, the binding signal with ETV4 came to 1.36; in the test with ETV1, 1.26; with ERF, 1.38.

Turning to GCCCTA, the binding signal with ETV4 was 1.15; in the test with ETV1 it was 1.06.

With AGCACA, the binding signal worked out at 1.07 with ETV4, 1.02 with ETV1 and 1.13 with ERF.

CAATAC: the binding signal with ETV4 turned out to be 1.24; with ETV1, 1.3; with ERF, 1.38.

As for TTTTCT, the binding signal with ETV4 was 1.38; in the test with ETV1 it was 1.21; with ERF, 1.36.

Regarding TGGGTT, the results for the binding signal with ETV4, with ETV1 and in the test with ERF were 1.06, 0.964 and 0.983, respectively.

Regarding CGCCAT, the figures for the binding signal with ETV4, with ETV1 and in the test with ERF were 1.02, 0.98 and 1.08, respectively.

Turning to CCGCTC, the results for the binding signal with ETV4, in the test with ETV1 and with ERF were 1.42, 1.45 and 1.66, respectively.

For the sequence ACACGC, the binding signal was found to be 1.13 with ETV4, 1.11 in the test with ETV1 and 0.958 with ERF.

For the sequence TGCATG, the binding signal in the test with ETV4 is 1.08; with ETV1 it was 1.06; with ERF, 1.06.

As to CATGCG, the figures for the binding signal in the test with ETV4, with ETV1 and with ERF were 0.992, 0.946 and 0.993, respectively.

Take AGCTCA: the binding signal with ETV4 was found to be 1.1; in the test with ETV1, 1.24.

As to ATGCCC, the binding signal with ETV4 worked out at 1.27; in the test with ETV1 it was 1.31; with ERF it was 1.31.

Regarding GTTAAG, the binding signal worked out at 1.02 with ETV4, 0.936 in the test with ETV1 and 1.03 with ERF.

For the sequence CACCCG, the binding signal in the test with ETV4 came out at 1.2; with ETV1, 1.14; with ERF it was 1.25.

On to GACATT, for which the binding signal in the test with ETV4 stood at 1.15; with ETV1 it was 1.26; in the test with ERF, 1.22.

As to TCCACG, the binding signal with ETV4 is 1.03; with ETV1 it was 1.08.

As to AATTAA, the binding signal with ETV4 is 1.23; with ETV1, 1.26; with ERF it was 1.31.

ACTAGG: the results for the binding signal with ETV4, in the test with ETV1 and with ERF were 1.02, 0.951 and 0.92, respectively.

TGGAAG: the binding signal with ELF1 came to 0.902; in the test with ETV4, 0.946; in the test with ETV1, 1.02; with ERF it was 0.988.

With GCCCAT, the binding signal is 1.06 with ELF1, 1.08 in the test with ETV4 and 0.933 with ETV1.

As to ACTATG, the binding signal with ELF1 amounted to 1.21; in the test with ETV4 it was 1.31; with ETV1, 1.24.

As for ACGCGT, the binding signal came out at 0.988 with ELF1, 0.978 in the test with ETV4, 0.974 with ETV1 and 0.954 with ERF.

As to ATGCCG, the binding signal in the test with ELF1 amounted to 1.09; with ETV4, 1.12; in the test with ETV1 it was 1.11; with ERF, 1.01.
